The list shows only some results of the screen, not a fair sample: its compounds were picked by chemical class. Not every dose and run of a compound is shown. T/C: endpoint of the treated group in % of that of the vehicle group. Schedule codes are those of the source, taken here to give the interval after Q, in days (D) or hours (H), and the number of doses after X. Some doses were run more than once; the values are given in rising order. Some T/C values carry the count of animals alive at the toxicity check; where neither a count nor a note follows, no animal had died by that day. Some complexes appear as separate parts, the way the source draws them; their charges need not add up. Some doses have a count of surviving animals in place of a T/C: the source holds a T/C of zero for them, seemingly a mark for toxic or unscored doses. Survivors were counted at the toxicity check; its day is shown where the source gives one, and later deaths do not show.
System: nude mice, LX-1 lung xenograft intrarenal, tumor weight T/C
Test: NCI In Vivo Anticancer Drug Screen. Data for tumor model Human Lung LX-1 Xenograft (intrarenal inoculation) in NU/NU Swiss (nude) mice
Details: T/C endpoint: mean tumor weight change, higher T/C = larger tumour; for T/C: evaluated on day 11
Experimental: The antitumor activity of compounds was measured in mice bearing transplantable tumors. Survival or tumor size were measured and the results are expressed as the measurement made in the treated group (T) divided by the measurement made in the vehicle treated control group (C). The tumor model used in this assay is Human Lung LX-1 Xenograft (intrarenal inoculation) in NU/NU Swiss (nude) mice

[1] = dose: 25.0 mg/kg/injection, schedule: Q01DX010 (sc), vehicle: saline with Tween-80
[2] = dose: 50.0 mg/kg/injection, schedule: Q01DX010 (sc), vehicle: saline with Tween-80
[3] = dose: 100.0 mg/kg/injection, schedule: Q01DX010 (sc), vehicle: saline with Tween-80
[4] = dose: 200.0 mg/kg/injection, schedule: Q01DX010 (sc), vehicle: saline with Tween-80
[5] = dose: 400.0 mg/kg/injection, schedule: Q01DX010 (sc), vehicle: saline with Tween-80
[6] = dose: 100.0 mg/kg/injection, schedule: Q01DX010 (sc), vehicle: Klucel (hydroxypropylcellulose) (HPC)
[7] = dose: 200.0 mg/kg/injection, schedule: Q01DX010 (sc), vehicle: Klucel (hydroxypropylcellulose) (HPC)
[8] = dose: 400.0 mg/kg/injection, schedule: Q01DX010 (sc), vehicle: Klucel (hydroxypropylcellulose) (HPC)
[9] = dose: 800.0 mg/kg/injection, schedule: Q01DX010 (sc), vehicle: Klucel (hydroxypropylcellulose) (HPC)
[10] = dose: 150.0 mg/kg/injection, schedule: Q04DX003 (sc), vehicle: Klucel (hydroxypropylcellulose) (HPC)
[11] = dose: 300.0 mg/kg/injection, schedule: Q04DX003 (sc), vehicle: Klucel (hydroxypropylcellulose) (HPC)

Nc1cc([As]=O)ccc1O (stereo not drawn)
T/C (dose: 6.25 mg/kg/injection, schedule: Q01DX010 (sc), vehicle: saline with Tween-80): 123 % of control | T/C (dose: 12.5 mg/kg/injection, schedule: Q01DX010 (sc), vehicle: saline with Tween-80): 162 % of control | T/C [1]: 103 and 118 % of control | T/C [2]: 117 and 165 % of control | survivor count [3]: 0 of 3 on day 11 | survivor count [4]: 0 of 3 on day 11

[Au+].[Au+].c1ccc([PH+](c2ccccc2)c2ccccc2)cc1.c1ccc([PH+](c2ccccc2)c2ccccc2)cc1.n1n[n-]c(-c2nnn[n-]2)n1
T/C [1]: 56 % of control | T/C [2]: 84 % of control [2 of 2 alive on day 11] | T/C [3]: 77 % of control [2 of 2 alive on day 11] | T/C [4]: 41 % of control [2 of 2 alive on day 11] | T/C [5]: 87 % of control [2 of 2 alive on day 11] | survivor count (dose: 800.0 mg/kg/injection, schedule: Q01DX010 (sc), vehicle: saline with Tween-80): 1 of 3 on day 11

ClP1(Cl)=NP(Cl)(Cl)=NP(Cl)(Cl)=NP(Cl)(Cl)=N1
T/C [6]: 57 % of control | T/C [7]: 65 % of control | T/C [8]: 87 % of control | T/C [9]: 41 % of control

ClC1CSC1
T/C (dose: 300.0 mg/kg/injection, schedule: Q04DX003 (sc), vehicle: saline with Tween-80): 112 % of control | T/C (dose: 600.0 mg/kg/injection, schedule: Q04DX003 (sc), vehicle: saline with Tween-80): 118 % of control | T/C (dose: 1200.0 mg/kg/injection, schedule: Q04DX003 (sc), vehicle: saline with Tween-80): 72 % of control | T/C (dose: 2400.0 mg/kg/injection, schedule: Q04DX003 (sc), vehicle: saline with Tween-80): 57 % of control

CC1(C)CN1P(=O)(Nc1ncccn1)N1CC1(C)C (stereo not drawn)
T/C (dose: 200.0 mg/kg/injection, schedule: Q04DX003 (sc), vehicle: saline): 88 % of control | T/C (dose: 400.0 mg/kg/injection, schedule: Q04DX003 (sc), vehicle: saline): 77 % of control | T/C (dose: 800.0 mg/kg/injection, schedule: Q04DX003 (sc), vehicle: saline): 55 % of control | survivor count (dose: 1600.0 mg/kg/injection, schedule: Q04DX003 (sc), vehicle: saline): 0 of 6 on day 11

CC(=O)OC(SC(OC(C)=O)C(Cl)(Cl)Cl)C(Cl)(Cl)Cl (stereo not drawn)
T/C [6]: 116 % of control | T/C [7]: 143 % of control | T/C [8]: 97 % of control | T/C [9]: 101 % of control

ICCN(CCI)c1cccc2ccccc12
T/C (dose: 37.5 mg/kg/injection, schedule: Q04DX003 (sc), vehicle: Klucel (hydroxypropylcellulose) (HPC)): 90 % of control | T/C (dose: 75.0 mg/kg/injection, schedule: Q04DX003 (sc), vehicle: Klucel (hydroxypropylcellulose) (HPC)): 103 % of control | T/C [10]: 85 % of control | T/C [11]: 64 % of control

CCCNC(=O)c1ccc(N(CCCl)CCCl)cc1
T/C [10]: 76 % of control | T/C [11]: 139 % of control | T/C (dose: 600.0 mg/kg/injection, schedule: Q04DX003 (sc), vehicle: Klucel (hydroxypropylcellulose) (HPC)): 129 % of control [5 of 6 alive on day 11] | T/C (dose: 1200.0 mg/kg/injection, schedule: Q04DX003 (sc), vehicle: Klucel (hydroxypropylcellulose) (HPC)): 81 % of control [5 of 6 alive on day 11]

NC(=O)c1[nH]cnc1/N=N\N(CCCl)CCCl
T/C [2]: 59 % of control | T/C [3]: 38 % of control | survivor count [4]: 1 of 3 on day 11 | survivor count [5]: 0 of 3 on day 11

[Au].[C-]#N.[C-]#N
T/C (dose: 10.0 mg/kg/injection, schedule: Q04DX003 (sc), vehicle: suspension in saline): 70 % of control | T/C (dose: 20.0 mg/kg/injection, schedule: Q04DX003 (sc), vehicle: suspension in saline): 56 % of control [5 of 6 alive on day 11] | survivor count (dose: 40.0 mg/kg/injection, schedule: Q04DX003 (sc), vehicle: suspension in saline): 1 of 6 on day 11
